# According to the supplement of paper PMC6331611:
# ± gives the standard deviation of the averaged measurements. The full ranking holds about 1,600 compounds; the median of “normalized growth (OD600, IQM-normalized) in LPM” is about 1, and the lowest 2% start at about 0.014. This is one part of the list.
# Test system: Salmonella enterica serovar Typhimurium SL1344
# Experiment: normalized growth (OD600, IQM-normalized) in LPM (fraction of plate interquartile mean); higher = more bacterial growth (less inhibition)
# Conditions: LPM pH 5.8; 10 µM; 16 h
row,SMILES,normalized growth
1,CC(C(=O)O)c1ccc(-c2ccccc2)c(F)c1 (stereo not drawn),1.14 ± 0.11
2,COc1cc2c(N3CCN(C(=O)Nc4ccc(OC(C)C)cc4)CC3)ncnc2cc1OCCCN1CCCCC1,0.899 ± 0.0095
3,O=C(OCC(O)CO)c1ccccc1Nc1ccnc2cc(Cl)ccc12 (stereo not drawn),0.937 ± 0.18
4,Cc1c(OCC(F)(F)F)ccnc1C[S@@+]([O-])c1nc2ccccc2[nH]1,0.967 ± 0.085
5,Nc1nc2ccc(OC(F)(F)F)cc2s1,1.33 ± 0.093
6,CN1CCC(=C2c3ccccc3CCc3cccnc32)CC1,1.04 ± 0.013
7,OC[C@H]1O[C@H](O[C@]2(CCl)O[C@H](CCl)[C@@H](O)[C@@H]2O)[C@H](O)[C@@H](O)[C@H]1Cl,0.769 ± 0.13
8,CCOC(=O)O[C@]1(C(=O)COC(=O)CC)CC[C@H]2[C@@H]3CCC4=CC(=O)C=C[C@]4(C)[C@H]3[C@@H](O)C[C@@]21C,1 ± 0.03
9,O=C(O)c1cc(/N=N/c2ccc(O)c(C(=O)O)c2)ccc1O,0.998 ± 0.019
10,CC(=O)NCCCS(=O)(=O)O,0.949 ± 0.11
11,COc1ccc2c(c1OC)C(=O)O[C@@H]2[C@H]1c2c(cc3c(c2OC)OCO3)CCN1C,1.019 ± 0.0086
12,C=C1c2c(Cl)ccc(O)c2C(=O)C2=C(O)[C@]3(O)C(=O)C(C(N)=O)=C(O)[C@@H](N(C)C)[C@@H]3[C@@H](O)[C@H]12.O=C(O)c1cc(S(=O)(=O)O)ccc1O,0.0199 ± 0.00036
13,CC(C)(C)NCC(O)COc1cccc2c1CCC(=O)N2 (stereo not drawn),0.905 ± 0.036
14,CNC[C@H](O)c1ccc(O)c(O)c1,1.19 ± 0.046
15,CC(S)C(=O)NCC(=O)O (stereo not drawn),0.982 ± 0.071
16,COc1ccc(OC)c(C(O)CNC(=O)CN)c1 (stereo not drawn),0.885 ± 0.017
17,CN1CCN(CCCN2c3ccccc3Sc3ccc(C(F)(F)F)cc32)CC1,0.892 ± 0.11
18,CC[C@H](C)[C@H](N)C1=N[C@H](C(=O)N[C@@H](CC(C)C)C(=O)N[C@H](CCC(=O)O)C(=O)N[C@H](C(=O)N[C@H]2CCCCNC(=O)[C@H](CC(N)=O)NC(=O)[C@@H](CC(=O)O)NC(=O)[C@H](Cc3cnc[nH]3)NC(=O)[C@@H](Cc3ccccc3)NC(=O)[C@H]([C@@H](C)CC)NC(=O)[C@@H](CCCN)NC2=O)[C@@H](C)CC)CS1,1.06 ± 0.043
19,CC(=O)NS(=O)(=O)c1ccc(NC(=O)c2ccccc2C(=O)O)cc1,0.988 ± 0.044
20,OC(CNCC(O)C1CCc2cc(F)ccc2O1)C1CCc2cc(F)ccc2O1 (stereo not drawn),1.14 ± 0.072
21,CC(C)(C#N)c1cc(Cn2cncn2)cc(C(C)(C)C#N)c1,0.85 ± 0.065
22,Oc1c(I)cc(Cl)c2cccnc12,0.0675 ± 0.02
23,CC(=O)c1ccc2c(c1)N(CCCN(C)C)c1ccccc1S2,1.06 ± 0.075
24,CN(C)CCOC(C)(c1ccccc1)c1ccccn1 (stereo not drawn),1.03 ± 0.058
25,C=CCNC(N)=S,0.957 ± 0.025

row,SMILES,normalized growth
1,Nc1ccn([C@H]2CC[C@@H](CO)O2)c(=O)n1,1.04 ± 0.027
2,COc1cc(/C=C/C(N)=O)cc(OC)c1OC,0.972 ± 0.033
3,CN(C(=O)C(Cl)Cl)c1ccc(OC(=O)c2ccco2)cc1,0.986 ± 0.033
4,CCN(CC)CCc1nc(-c2ccccc2)no1,0.956 ± 0.062
5,CCc1cn([C@H]2C[C@H](O)[C@@H](CO)O2)c(=O)[nH]c1=O,0.664 ± 0.046
6,O=S(=O)(O)NC1CCCCC1,1.94 ± 0.16
7,CC(NCCC(c1ccccc1)c1ccccc1)c1ccccc1 (stereo not drawn),0.976 ± 0.038
8,CN(C)[C@@H]1C(O)=C(C(=O)NCN2CCCC2)C(=O)[C@@]2(O)C(O)=C3C(=O)c4c(O)cccc4[C@@](C)(O)[C@H]3C[C@@H]12,0.854 ± 0.027
9,Cc1c(N(C)CS(=O)(=O)O)c(=O)n(-c2ccccc2)n1C,1 ± 0.032
10,NCC(O)CC(=O)O (stereo not drawn),1.14 ± 0.047
11,CC(=O)OCC(CCn1cnc2cnc(N)nc21)COC(C)=O,1.08 ± 0.028
12,C[C@H](CCC(=O)O)[C@H]1CC[C@H]2[C@@H]3[C@H](O)C[C@@H]4C[C@H](O)CC[C@]4(C)[C@H]3CC[C@]12C,1.09 ± 0.058
13,CC[C@H](C)C(=O)O[C@H]1CCC=C2C=C[C@H](C)[C@H](CC[C@@H]3C[C@@H](O)CC(=O)O3)[C@H]21,0.969 ± 0.022
14,Nc1cc(C(Cl)=C(Cl)Cl)c(S(N)(=O)=O)cc1S(N)(=O)=O,1.01 ± 0.036
15,C1CNCCN1,1.001 ± 0.01
16,COc1c2occc2c(OC)c2c(=O)cc(C)oc12,0.867 ± 0.016
17,O=c1oc2ccccc2c(O)c1Cc1c(O)c2ccccc2oc1=O,1.04 ± 0.011
18,CN1CCN(CCCN2c3ccccc3Sc3ccc(Cl)cc32)CC1,0.982 ± 0.025
19,COc1ccc(C2CNC(=O)C2)cc1OC1CCCC1 (stereo not drawn),1 ± 0.02
20,O=C1OCCN1/N=C/c1ccc([N+](=O)[O-])o1,0.106 ± 0.012
21,NC(=O)c1ccc([N+](=O)[O-])cc1Cl,0.895 ± 0.043
22,CC(C)[C@H](N)C(=O)OCC(CO)OCn1cnc2c(=O)nc(N)[nH]c21 (stereo partly drawn),1.02 ± 0.027
23,CCC(=O)O[C@]1(C(=O)CCl)[C@@H](C)C[C@H]2[C@@H]3CCC4=CC(=O)C=C[C@]4(C)[C@@]3(F)[C@@H](O)C[C@@]21C,0.923 ± 0.05
24,c1ccc([C@H]2CN3CCSC3=N2)cc1,0.906 ± 0.13
25,Cc1c(O)c(=O)ccn1C,0.983 ± 0.036

# Reformatted bar-delimited: 2 of the compounds above
row | SMILES | normalized growth
15 | C1CNCCN1 | 1.001 ± 0.01
16 | COc1c2occc2c(OC)c2c(=O)cc(C)oc12 | 0.867 ± 0.016

# (continued)

row,SMILES,normalized growth
1,CC(C)NCC(O)c1ccc2ccccc2c1 (stereo not drawn),0.858 ± 0.0091
2,CC(=O)O[C@]1(C(C)=O)CC[C@H]2[C@@H]3C[C@H](C)C4=CC(=O)CC[C@]4(C)[C@H]3CC[C@@]21C,1.1 ± 0.036
3,O=C(O)c1cc(-c2ccccc2)nc2ccccc12,0.876 ± 0.054
4,CN(C)c1nc(N(C)C)nc(N(C)C)n1,1.06 ± 0.061
5,COc1ccccc1OCC(O)CN1CCN(CC(=O)Nc2c(C)cccc2C)CC1 (stereo not drawn),0.946 ± 0.025
6,NC(=O)C(c1ccccc1)(c1ccccc1)[C@@H]1CCN(CCc2ccc3c(c2)CCO3)C1,0.931 ± 0.031
7,CCCNCC(O)COc1ccccc1C(=O)CCc1ccccc1 (stereo not drawn),1.32 ± 0.02
8,C[C@H]1C[C@@H]2[C@H]([C@@H](O)C[C@@]3(C)[C@H]2CC[C@]3(O)C(=O)CO)[C@@]2(C)C=CC(=O)C=C12,1.18 ± 0.14
9,O=C1CC2(CCCC2)CC(=O)N1CCCCN1CCN(c2ncccn2)CC1,0.96 ± 0.02
10,CC[C@H]1OC(=O)[C@H](C)[C@@H](O[C@H]2C[C@@](C)(OC)[C@@H](O)[C@H](C)O2)[C@H](C)[C@@H](O[C@@H]2O[C@H](C)C[C@H](N(C)C)[C@H]2O)[C@](C)(O)C[C@@H](C)[C@@H]2N[C@@H](COCCOC)O[C@H]([C@H]2C)[C@]1(C)O,1.02 ± 0.015
11,O=c1cc[nH]c(=S)[nH]1,0.954 ± 0.037
12,CC(=O)OC1CC2CCC1(C)C2(C)C (stereo not drawn),1.21 ± 0.048
13,CC1Cc2ccccc2N1NC(=O)c1ccc(Cl)c(S(N)(=O)=O)c1 (stereo not drawn),0.988 ± 0.02
14,CCC(=O)c1c(O)cc(O)cc1O,1.09 ± 0.016
15,FC(F)(Cl)C(F)(F)Cl,1.09 ± 0.029
16,Nc1ccc(S(=O)(=O)Nc2ccnn2-c2ccccc2)cc1,1.01 ± 0.058
17,CO/N=C(\C(=O)N[C@@H]1C(=O)N2C(C(=O)O)=C(COC(N)=O)CS[C@H]12)c1ccco1,0.616 ± 0.018
18,O=C(NCC(O)CO)c1c(I)c(C(=O)NCC(O)CO)c(I)c(N(CCO)C(=O)CO)c1I (stereo not drawn),1.06 ± 0.053
19,CC(=O)Nc1ncc([N+](=O)[O-])s1,0.899 ± 0.018
20,CC12CCC(CC1)C(C)(C)O2,0.988 ± 0.08
21,CCCCCCCCCCCCCCCC(=O)O[C@@H]1[C@@H](O)[C@@H](O)[C@@H]([C@H](NC(=O)[C@@H]2C[C@@H](CCC)CN2C)[C@H](C)Cl)O[C@@H]1SC,0.953 ± 0.024
22,Cc1cc(CC(=O)O)n(C)c1C(=O)c1ccc(Cl)cc1,1 ± 0.05
23,COc1ccc2cc(C(C)C(=O)O)ccc2c1 (stereo not drawn),1.07 ± 0.032
24,CC(C)C[C@@H]1NC(=O)[C@H](CCCN)NC(=O)[C@H](C(C)C)NC(=O)[C@H](Cc2ccc(O)cc2)N[C@@H](CCC(=O)O)C(=O)N[C@@H](CC(N)=O)C(=O)[C@@H](Cc2ccccc2)NC(=O)[C@H](Cc2ccccc2)NC(=O)[C@@H]2CCCN2C(=O)[C@@H](Cc2ccccc2)NC1=O,0.992 ± 0.1
25,Nc1ccc2cc3ccc(N)cc3nc2c1,0.57 ± 0.074

# Arranged by number of heavy atoms (smallest number first): part of the list above
row,SMILES,normalized growth
11,O=c1cc[nH]c(=S)[nH]1,0.954 ± 0.037
19,CC(=O)Nc1ncc([N+](=O)[O-])s1,0.899 ± 0.018
16,Nc1ccc(S(=O)(=O)Nc2ccnn2-c2ccccc2)cc1,1.01 ± 0.058

# Some values from the entries so far.
# Under normalized growth, C=CCNC(N)=S has 0.957 ± 0.025
# Under normalized growth, Nc1nc2ccc(OC(F)(F)F)cc2s1 has 1.33 ± 0.093

# Additional results

row,SMILES,normalized growth
1,CC1(C)O[C@@H]2C[C@H]3[C@@H]4CCC5=CC(=O)C=C[C@]5(C)[C@@]4(F)[C@@H](O)C[C@]3(C)[C@]2(C(=O)CO)O1,0.891 ± 0.017
2,O=C(O)CCCc1ccccc1,0.998 ± 0.044
3,Cc1cnc(NC(=O)C2=C(O)c3ccccc3S(=O)(=O)N2C)s1,1.03 ± 0.1
4,O=C(O)COC(=O)Cc1ccccc1Nc1c(Cl)cccc1Cl,1.68 ± 0.2
5,C[C@@H]1C[C@H]2[C@@H]3CCC4=CC(=O)C=C[C@]4(C)[C@@]3(F)[C@@H](O)C[C@]2(C)[C@@]1(O)C(=O)CO,0.992 ± 0.067
6,OC1(c2ccc(Cl)c(C(F)(F)F)c2)CCN(CCCC(c2ccc(F)cc2)c2ccc(F)cc2)CC1,0.849 ± 0.038
7,O=C1C2CC3CC1CC(O)(C3)C2,0.916 ± 0.049
8,Cc1nnc(NS(=O)(=O)c2ccc(N)cc2)s1,1.01 ± 0.026
9,CC1CC(OC(=O)C(O)c2ccccc2)CC(C)(C)N1C (stereo not drawn),1.07 ± 0.061
10,C1CCN2C[C@@H]3C[C@@H](CN4CCCC[C@@H]34)[C@H]2C1,1.13 ± 0.04
11,CC1=Nc2ccc(Cl)cc2S(=O)(=O)N1,0.927 ± 0.058
12,CC(C(=O)O)c1ccc(N2Cc3ccccc3C2=O)cc1 (stereo not drawn),0.982 ± 0.048
13,CCN1CCN(C(=O)N[C@@H](C(=O)N[C@@H]2C(=O)N3C(C(=O)O)=C(CSc4nnnn4C)CS[C@H]23)c2ccc(O)cc2)C(=O)C1=O,0.941 ± 0.089
14,CN(C)CCOc1ccc(/C(=C(/CCCl)c2ccccc2)c2ccccc2)cc1,1.08 ± 0.11
15,Cc1ccc(Cl)c(Nc2ccccc2C(=O)O)c1Cl,2.25 ± 0.16
16,C[C@H]1C[C@H]2[C@@H]3CCC4=CC(=O)C=C[C@]4(C)[C@@]3(F)[C@@H](O)C[C@]2(C)[C@@]1(O)C(=O)CO,1.01 ± 0.065
17,Oc1ccc(OCc2ccccc2)cc1,0.91 ± 0.11
18,CCCCNc1ccc(C(=O)OCCOCCOCCOCCOCCOCCOCCOCCOCCOC)cc1,1.2 ± 0.11
19,CC(C)(Oc1ccc(C(=O)c2ccc(Cl)cc2)cc1)C(=O)O,0.976 ± 0.024
20,Cc1cc(/C=C/c2ccc3cc(N(C)C)ccc3[n+]2C)c(C)n1-c1ccccc1,0.928 ± 0.037
21,CCn1nc(C(=O)O)c(=O)c2cc3c(cc21)OCO3,0.00789 ± 0.00035
22,Cc1nc2ccccc2n1Cc1ccc(Cl)cc1,0.912 ± 0.027
23,Cc1cc(=O)oc2cc(O)ccc12,0.995 ± 0.025
